In the supplement of paper PMC4604168 (melanoma cell lines):
The list shows a part of the results. Single values are uncertain, as repeats are few or missing.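 The apoptosis fraction was the count of cleaved-PARP antibody-stained nuclei relative to all DNA-stained nuclei, imaged in 1,536-well plates. Screening doses were set so most cells survived, and baseline and induced cleaved-PARP levels vary greatly across cell lines.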

Legend:
Test in all cases: cleaved PARP positive nuclei fraction relative to DMSO control; melanoma cells; higher = more apoptosis
Details in all cases: library dose: low library concentration; 72 h
501Mel = tested on: 501Mel
A101D = tested on: A101D
A2058 = tested on: A2058
A375 = tested on: A375
C32 = tested on: C32
CBRC008 = tested on: CBRC008 (line from a melanoma biopsy)
CBRC014 = tested on: CBRC014 (line from a melanoma biopsy)
CBRC016 = tested on: CBRC016 (line from a melanoma biopsy)
CBRC017 = tested on: CBRC017 (line from a melanoma biopsy)
CBRC034 = tested on: CBRC034 (line from a melanoma biopsy)
COLO792 = tested on: COLO792
COLO829 = tested on: COLO829
G361 = tested on: G361
IPC-298 = tested on: IPC-298
IST-MEL1 = tested on: IST-MEL1
LB2518-MEL = tested on: LB2518-MEL
LOXIMVI = tested on: LOXIMVI
MEL-HO = tested on: MEL-HO
COLO800 = tested on: COLO800
CBRC013 = tested on: CBRC013 (line from a melanoma biopsy)

Compound | cleaved PARP positive nuclei fraction (501Mel) | cleaved PARP positive nuclei fraction (A101D) | cleaved PARP positive nuclei fraction (A2058) | cleaved PARP positive nuclei fraction (A375) | cleaved PARP positive nuclei fraction (C32) | cleaved PARP positive nuclei fraction (CBRC008) | cleaved PARP positive nuclei fraction (CBRC014) | cleaved PARP positive nuclei fraction (CBRC016) | cleaved PARP positive nuclei fraction (CBRC017) | cleaved PARP positive nuclei fraction (CBRC034) | cleaved PARP positive nuclei fraction (COLO792) | cleaved PARP positive nuclei fraction (COLO829) | cleaved PARP positive nuclei fraction (G361) | cleaved PARP positive nuclei fraction (IPC-298) | cleaved PARP positive nuclei fraction (IST-MEL1) | cleaved PARP positive nuclei fraction (LB2518-MEL) | cleaved PARP positive nuclei fraction (LOXIMVI) | cleaved PARP positive nuclei fraction (MEL-HO) | cleaved PARP positive nuclei fraction (COLO800) | cleaved PARP positive nuclei fraction (CBRC013)
COc1cc([C@@H]2c3cc4c(cc3[C@@H](O[C@@H]3O[C@@H]5CO[C@@H](C)O[C@H]5[C@H](O)[C@H]3O)[C@H]3COC(=O)[C@H]23)OCO4)cc(OC)c1O [etoposide] + CS(=O)(=O)CCNCc1ccc(-c2ccc3ncnc(Nc4ccc(OCc5cccc(F)c5)c(Cl)c4)c3c2)o1 [lapatinib] (first compound 0.02 µM, partner dose 0.8 µM) | 128% | 150% | 106% | 214% | 183% | 166% | 91.2% | 137% | 103% | 132% | 113% | 159% | 60.6% | 88.8% | 38.6% | 113% | 78% | 117% |  | 
N#CC[C@H](C1CCCC1)n1cc(-c2ncnc3[nH]ccc23)cn1 [ruxolitinib] + Cc1cc(Nc2cc(N3CCN(C)CC3)nc(/C=C/c3ccccc3)n2)n[nH]1 [ENMD2076] (first compound 1 µM, partner dose 0.04 µM) | 100% | 134% | 138% | 37.8% | 81.1% | 127% | 95.8% | 58% | 81.3% | 117% | 139% | 90% | 112% | 83.7% | 157% | 54.4% | 103% | 101% | 75.6% | 
Cc1cc(Nc2cc(N3CCN(C)CC3)nc(Sc3ccc(NC(=O)C4CC4)cc3)n2)n[nH]1 [Tozasertib] + CC(=O)O[C@@]12CO[C@@H]1C[C@H](O)[C@@]1(C)C(=O)[C@H](O)C3=C(C)[C@@H](OC(=O)[C@H](O)[C@@H](NC(=O)OC(C)(C)C)c4ccccc4)C[C@@](O)([C@@H](OC(=O)c4ccccc4)[C@H]21)C3(C)C [Docetaxel] (first compound 0.006 µM, partner dose 0.0001 µM) | 111% | 216% | 2510% | 701% | 111% | 261% | 106% | 487% | 169% | 97.2% | 215% | 274% | 498% | 313% | 148% | 72.8% | 190% | 525% | 194% | 
Cc1cn(-c2cc(NC(=O)c3ccc(C)c(Nc4nccc(-c5cccnc5)n4)c3)cc(C(F)(F)F)c2)cn1 [nilotinib] + NC(=O)c1ccc(N(C(N)=O)c2c(F)cccc2F)nc1-c1ccc(F)cc1F [VX702] (first compound 0.2 µM, partner dose 0.4 µM) | 83.4% | 48.2% | 53.7% | 178% | 72.6% | 32.1% | 101% | 42.1% | 115% | 73.9% | 221% | 78% | 108% | 43.1% | 126% | 86.2% | 143% | 220% | 100% | 
COc1cc([C@@H]2c3cc4c(cc3[C@@H](O[C@@H]3O[C@@H]5CO[C@@H](C)O[C@H]5[C@H](O)[C@H]3O)[C@H]3COC(=O)[C@H]23)OCO4)cc(OC)c1O [etoposide] + C[C@@H](N)c1ccc(C(=O)Nc2ccnc3[nH]ccc23)cc1 [RKI983] (first compound 0.02 µM, partner dose 0.4 µM) | 72.2% | 140% | 321% | 166% | 88.2% | 92.6% | 135% | 72.2% | 79.4% | 85.3% | 134% | 106% | 72.8% | 96.2% | 122% | 129% | 56.2% | 139% | 150% | 
N#CC[C@H](C1CCCC1)n1cc(-c2ncnc3[nH]ccc23)cn1 [ruxolitinib] + C=C(c1ccc(C(=O)O)cc1)c1cc2c(cc1C)C(C)(C)CCC2(C)C [Bexarotene] (first compound 1 µM, partner dose 2 µM) | 172% | 79.5% | 83.6% | 74% | 133% | 153% | 141% | 112% | 133% | 33.3% | 39.2% |  | 107% | 45.6% | 101% | 46% | 193% | 60.9% | 50.4% | 
O=C(/C=C/c1cccnc1)NCCCCC1CCN(C(=O)c2ccccc2)CC1 + Cn1nnc2c(C(N)=O)ncn2c1=O [temozolomide] (first compound 0.01 µM, partner dose 2 µM) | 100% | 58.3% | 57.9% | 173% | 84.7% | 3180% | 91.5% | 568% | 667% | 868% | 360% | 145% | 4410% | 214% | 99.8% | 101% | 144% | 183% | 454% | 
COc1cc([C@@H]2c3cc4c(cc3[C@@H](O[C@@H]3O[C@@H]5CO[C@@H](C)O[C@H]5[C@H](O)[C@H]3O)[C@H]3COC(=O)[C@H]23)OCO4)cc(OC)c1O [etoposide] + CC(C)(C)c1cnc(CSc2cnc(NC(=O)C3CCNCC3)s2)o1 [SNS-032] (first compound 0.02 µM, partner dose 0.01 µM) | 229% | 49.5% | 63.3% | 166% |  | 83.1% | 80.5% | 97% | 102% |  | 110% | 122% | 82.8% | 30.9% | 102% | 150% | 175% | 31.1% | 83.8% | 109%
CC[C@]1(O)C[C@H]2CN(CCc3c([nH]c4ccccc34)[C@@](C(=O)OC)(c3cc4c(cc3OC)N(C=O)[C@H]3[C@@](O)(C(=O)OC)[C@H](OC(C)=O)[C@]5(CC)C=CCN6CC[C@]43[C@@H]65)C2)C1 [vincristine] + C#Cc1cccc(Nc2ncnc3cc(OCCOC)c(OCCOC)cc23)c1 [erlotinib] (first compound 0.0001 µM, partner dose 0.8 µM) | 154% | 516% | 3140% | 584% | 90.4% | 255% | 113% | 177% | 115% | 301% | 60.4% | 98.6% | 147% | 102% | 208% | 223% | 101% | 86% | 72.4% | 
CC[C@]1(O)C[C@H]2CN(CCc3c([nH]c4ccccc34)[C@@](C(=O)OC)(c3cc4c(cc3OC)N(C=O)[C@H]3[C@@](O)(C(=O)OC)[C@H](OC(C)=O)[C@]5(CC)C=CCN6CC[C@]43[C@@H]65)C2)C1 [vincristine] + Cc1cc([N+](=O)[O-])ccc1NS(=O)(=O)c1cc(Cl)ccc1Cl [FH535] (first compound 0.0001 µM, partner dose 1 µM) | 113% | 47.6% | 2090% |  | 402% | 464% | 191% | 472% | 371% |  | 140% | 271% | 93.3% | 107% | 64% | 97.3% | 120% |  | 52.7% | 
COc1cc([C@@H]2c3cc4c(cc3[C@@H](O[C@@H]3O[C@@H]5CO[C@@H](C)O[C@H]5[C@H](O)[C@H]3O)[C@H]3COC(=O)[C@H]23)OCO4)cc(OC)c1O [etoposide] + Cn1c(Nc2ccc(C(F)(F)F)cc2)nc2cc(Oc3ccnc(-c4ncc(C(F)(F)F)[nH]4)c3)ccc21 [CHIR265] (first compound 0.02 µM, partner dose 0.08 µM) | 110% | 150% | 196% | 392% | 226% | 104% |  | 238% | 127% | 61.7% | 406% | 16.2% | 179% | 293% | 36.5% | 172% | 64.5% | 211% | 79.5% | 
CCCCCCCCCCCCCCCCCCOP(=O)([O-])OC1CC[N+](C)(C)CC1 [Perifosine] + Cn1cc(/C=C2\C(=O)Nc3cccnc32)c2ccccc21 [GW441756] (first compound 0.4 µM, partner dose 0.4 µM) | 59.1% | 43.2% | 142% |  | 120% | 180% | 104% | 50.5% | 71.8% |  | 116% | 111% | 135% | 25.8% | 113% | 38.3% | 23.9% |  | 80.2% | 
O=C(Nc1cc(C(F)(F)F)cc(C(F)(F)F)c1)c1cc(Cl)ccc1O + Cn1cnc2c(F)c(Nc3ccc(Br)cc3Cl)c(C(=O)NOCCO)cc21 [selumetinib] (first compound 0.016 µM, partner dose 0.015 µM) | 155% | 90.2% | 178% | 103% | 85.9% | 159% | 91.5% | 151% | 131% | 93.7% | 352% | 46.9% | 132% | 201% | 65.3% | 136% | 51.9% | 67.4% | 78.7% | 
Cc1ccc(Nc2nccc(N(C)c3ccc4c(C)n(C)nc4c3)n2)cc1S(N)(=O)=O [Pazopanib] + C=C(c1ccc(C(=O)O)cc1)c1cc2c(cc1C)C(C)(C)CCC2(C)C [Bexarotene] (first compound 0.4 µM, partner dose 2 µM) | 88% | 215% | 59.9% | 123% | 99.9% | 39.8% | 107% | 157% | 113% | 62.6% | 146% | 81.9% | 223% | 105% | 73.7% | 98.3% | 78% | 153% | 130% | 
COc1cc([C@@H]2c3cc4c(cc3[C@@H](O[C@@H]3O[C@@H]5CO[C@@H](C)O[C@H]5[C@H](O)[C@H]3O)[C@H]3COC(=O)[C@H]23)OCO4)cc(OC)c1O [etoposide] + Nc1ccn([C@@H]2O[C@H](CO)[C@@H](O)C2(F)F)c(=O)n1 [gemcitabine] (first compound 0.02 µM, partner dose 0.0004 µM) | 160% | 49.3% | 279% | 213% | 80.1% | 165% |  | 196% | 127% | 149% | 96% | 112% | 60.7% | 62.5% | 104% | 172% | 248% | 121% | 56.3% | 
COc1cc([C@@H]2c3cc4c(cc3[C@@H](O[C@@H]3O[C@@H]5CO[C@@H](C)O[C@H]5[C@H](O)[C@H]3O)[C@H]3COC(=O)[C@H]23)OCO4)cc(OC)c1O [etoposide] + CCCCCCCCCCCCCCCCCCOP(=O)([O-])OC1CC[N+](C)(C)CC1 [Perifosine] (first compound 0.02 µM, partner dose 0.4 µM) | 159% | 41.6% | 138% | 52% | 73.6% | 80.1% |  | 39.4% | 102% | 26.6% | 51.5% | 64.9% | 24.9% | 129% | 132% | 94.8% | 99.2% | 119% | 132% | 

Look-ups from the results shown.
Entry of O=C(Nc1cc(C(F)(F)F)cc(C(F)(F)F)c1)c1cc(Cl)ccc1O + Cn1cnc2c(F)c(Nc3ccc(Br)cc3Cl)c(C(=O)NOCCO)cc21 [selumetinib] (first compound 0.016 µM, partner dose 0.015 µM) under cleaved PARP positive nuclei fraction (COLO829): 46.9%
Entry of COc1cc([C@@H]2c3cc4c(cc3[C@@H](O[C@@H]3O[C@@H]5CO[C@@H](C)O[C@H]5[C@H](O)[C@H]3O)[C@H]3COC(=O)[C@H]23)OCO4)cc(OC)c1O [etoposide] + Cn1c(Nc2ccc(C(F)(F)F)cc2)nc2cc(Oc3ccnc(-c4ncc(C(F)(F)F)[nH]4)c3)ccc21 [CHIR265] (first compound 0.02 µM, partner dose 0.08 µM) under cleaved PARP positive nuclei fraction (COLO792): 406%
